Data on 39 compounds can be found in PMC12670160, “A drug-repurposing screen of FDA- and EMA-approved drugs identifies two NF-κB inhibitors active against eumycetoma” (Journal of Antimicrobial Chemotherapy, 2025).

SMILES strings stand for the structures. Where a name gives a salt, the structure may show the parent alone. Out of some 5,300 compounds screened, about 130 (2.5%) showed an effect of 50% or more. Some of the results follow.

The assay has as its system M. mycetomatis strain mm55. The note with it: primary screen, metabolic activity vs growth control; 96 h, 2 µM; inhibitor.
With `O=C(N[C@H]1CCN(C(=O)c2cc(C(F)(F)F)cc(C(F)(F)F)c2)[C@H](Cc2ccc(Cl)cc2)C1)c1ccnc2ccccc12` [ONC0001036, nkp608], the “% viability” value was 91.17%. On to `Nc1ccccc1S(N)(=O)=O` [ONC0002929, 2aminobenzenesulfonamide], for which the “% viability” value stood at 63.8%. For the compound `COc1ccccc1Oc1c(NS(=O)(=O)c2ccc(C(C)(C)C)cc2)nc(-c2ncccn2)nc1OCCO` [ONC0004331, bosentan hydrate], the “% viability” value came out at 88.36%. Take `COc1cc(C(=S)N2CCOCC2)cc(OC)c1OC` [ONC0003521, sulmetozine]: the “% viability” value came to 115.3%. Consider `CCS(=O)(=O)N(C)[C@@H]1c2cc(C#N)ccc2OC(C)(C)[C@H]1O.CCS(=O)(=O)N(C)[C@H]1c2cc(C#N)ccc2OC(C)(C)[C@@H]1O` [ONC0001571, chromanol], for which the “% viability” value stood at 78.85%.

For the compound `CNC(=O)COC(=O)NCCC1CCN(c2cccc(C)n2)CC1` [ONC0004429, sa47], the “% viability” value was found to be 123%. The result for `CC(C)[N+](C)(CCOC(=O)C1c2ccccc2Oc2ccccc21)C(C)C` [ONC0000490, propantheline bromide] reads 65.5%. As to `CN1CCN2c3c(cccc31)[C@@H]1CN(CCCC(=O)c3ccc(F)cc3)CC[C@@H]12` [ONC0001244, lumateperone tosylate], the “% viability” value came out at 56.09%. The result for `CN1CCC[C@@H]1Cc1c[nH]c2ccc(CCS(=O)(=O)c3ccccc3)cc12` [ONC0001863, eletriptan] reads 100.4%; that for `CC1(N)CCN(c2cnc(-c3cccc(Cl)c3Cl)c(N)n2)CC1` [ONC0002240, shp099 hydrochloride], 79.27%. Consider `O=S(=O)(Oc1ccc(Cl)cc1)c1ccc(Cl)cc1` [ONC0005320, chlorfenson], for which the “% viability” value is listed as 128.7%. For `CC(C)OC(=O)c1cc2c(OCC(O)CNC(C)(C)C)cccc2[nH]1` (stereo not drawn) [ONC0002751, sdz21009], the “% viability” value turned out to be 85.54%. For `Cc1c(OCc2cccc(-c3ccc(C(=O)O)cc3)c2)cc2c(c1C)C(=O)C(C1CCCC1)C2` (stereo not drawn) [ONC0001611, bina], the “% viability” value worked out at 87.09%. The figure for `CC(C)[C@@]1(NC(=O)[C@@H]2C[C@@H]3c4cccc5[nH]cc(c45)C[C@H]3N(C)C2)O[C@@]2(O)[C@@H]3CCCN3C(=O)[C@H](Cc3ccccc3)N2C1=O` [ONC0001506, dihydroergocristine] is 93.64%; for `CN/C(=C\[N+](=O)[O-])NCCSCc1ccc(CN(C)C)o1` [ONC0000620, ranitidine hydrochloride] it is 88.41%; for `Cc1c(C(=O)NCc2cccnc2)nn(-c2ccc(Cl)cc2Cl)c1-c1ccc(Cl)cc1` [ONC0001432, mj15] it is 60.06%. As for `COc1ccc(-c2cc(=S)ss2)cc1` [ONC0001189, anethole trithione], the “% viability” value was 98.01%. For the compound `Cc1cc(C(C)(C)C)c(O)c(C(C)(C)C)c1` [ONC0005316, butylated hydroxytoluene], the “% viability” value came out at 71.9%. The result for `COc1ccc(NS(=O)(=O)c2sc3ccc(Cl)cc3c2C)cc1N1CCNCC1` [ONC0005236, sb 271046] reads 123.6%; that for `COc1cc(OC2CCN(C)CC2)ccc1Nc1ncc2c(n1)n(C1CCCC1)c(=O)n2C` [ONC0002621, az3146], 77.21%; that for `C/C(=C\c1csc(C)n1)[C@@H]1C[C@@H]2O[C@]2(C)CCC[C@H](C)[C@H](O)[C@@H](C)C(=O)C(C)(C)[C@@H](O)CC(=O)N1` [ONC0000757, ixabepilone], 82.26%. Regarding `N#C/C(=C\c1ccc(O)c(O)c1)C(=O)OCCc1cccs1` [ONC0003005, 2tedc], the “% viability” value was 96.98%.

For the compound `CC(C)(C)C(=O)/C(=N/c1ccc(Cl)cc1)NNc1ccc(Cl)cc1` [ONC0001344, ty52156], the “% viability” value is on record as 79.2%. On to `CN1CCN(c2ncc(-c3cc(Cl)cc(Cl)c3Cl)c(N)n2)CC1` [ONC0002609, sipatrigine], for which the “% viability” value came out at 101.5%. With `C1COC(NC(C2CC2)C2CC2)=N1` [ONC0003047, rilmenidine], the “% viability” value came out at 64.77%.

Regarding `Cn1c(=O)[nH]c2ncn(C)c2c1=O` [ONC0002010, paraxanthine], the “% viability” value is recorded as 115.5%. In the case of `C#CCN[C@@H]1CCc2ccccc21` [ONC0004669, rasagiline mesylate], the “% viability” value amounted to 159.9%. Take `COc1cc2ncn(-c3cc(OCc4ccccc4C(F)(F)F)c(C(N)=O)s3)c2cc1OC` [ONC0000159, gw843682x]: the “% viability” value is given as 75.74%.

On to `OC[C@H]1O[C@@H](n2cnc3c(NC4CCCC4)ncnc32)[C@H](O)[C@@H]1O` [ONC0001585, n6cyclopentyladenosine], for which the “% viability” value turned out to be 72.4%.

Consider `CCOc1nc2cccc(C(=O)OCc3oc(=O)oc3C)c2n1Cc1ccc(-c2ccccc2-c2noc(=O)[nH]2)cc1` [ONC0002404, azilsartan medoxomil], for which the “% viability” value is given as 105.9%. As to `CC(C)Oc1ccc(-c2nc(-c3cccc4c3CCC4NCCC(=O)O)no2)cc1C#N` (stereo not drawn) [ONC0002706, rp001], the “% viability” value is given as 77.26%. For the compound `CC1(C)CCC(C)(C)c2cc(C3(c4ccc(C(=O)O)cc4)OCCO3)ccc21` [ONC0000169, bms649], the “% viability” value is 80.1%. Turning to `CCCn1c(=O)[nH]c(=O)c2[nH]cnc21` [ONC0001998, 3npropylxanthine], the “% viability” value is on record as 100.8%. In the case of `COC(=O)Nc1nc2ccc(Sc3ccccc3)cc2[nH]1` [ONC0000641, fenbendazole], the “% viability” value was determined as 109.2%.

In the case of `CCOc1cccc(NC(=O)c2ccc(N3CCCC3)c(C(F)(F)F)c2)c1` [ONC0001854, epptb], the “% viability” value is recorded as 85.67%. As to `c1ccc2sc(SN3CCOCC3)nc2c1` [ONC0003734, noxydiethylenebenzothiazole2sulfenamide], the “% viability” value was 115.2%. As for `CC(=O)[C@@]1(O)CC[C@H]2[C@@H]3C[C@H](C)C4=CC(=O)C=C[C@]4(C)[C@@]3(F)[C@@H](O)C[C@@]21C` [ONC0000532, fluorometholone], the “% viability” value is 74.24%. `CCc1nc(N)nc(N)c1-c1ccc(Cl)cc1` [ONC0003378, pyrimethamine]: the “% viability” value amounted to 66.85%.

On to `C1CCC(C(CC2CCCCN2)C2CCCCC2)CC1` (stereo not drawn) [ONC0002896, perhexiline maleate], for which the “% viability” value worked out at 98.87%.
